# PubChem BioAssay AID588590 (National Center for Advancing Translational Sciences (NCATS), 2011)
# By UniProt entry, the sequences of proteins in these tests, tags left out. Where a name states a change or a piece, a line headed by the entry shows the natural chain unless it says otherwise.
# UniProt Q9UNA4: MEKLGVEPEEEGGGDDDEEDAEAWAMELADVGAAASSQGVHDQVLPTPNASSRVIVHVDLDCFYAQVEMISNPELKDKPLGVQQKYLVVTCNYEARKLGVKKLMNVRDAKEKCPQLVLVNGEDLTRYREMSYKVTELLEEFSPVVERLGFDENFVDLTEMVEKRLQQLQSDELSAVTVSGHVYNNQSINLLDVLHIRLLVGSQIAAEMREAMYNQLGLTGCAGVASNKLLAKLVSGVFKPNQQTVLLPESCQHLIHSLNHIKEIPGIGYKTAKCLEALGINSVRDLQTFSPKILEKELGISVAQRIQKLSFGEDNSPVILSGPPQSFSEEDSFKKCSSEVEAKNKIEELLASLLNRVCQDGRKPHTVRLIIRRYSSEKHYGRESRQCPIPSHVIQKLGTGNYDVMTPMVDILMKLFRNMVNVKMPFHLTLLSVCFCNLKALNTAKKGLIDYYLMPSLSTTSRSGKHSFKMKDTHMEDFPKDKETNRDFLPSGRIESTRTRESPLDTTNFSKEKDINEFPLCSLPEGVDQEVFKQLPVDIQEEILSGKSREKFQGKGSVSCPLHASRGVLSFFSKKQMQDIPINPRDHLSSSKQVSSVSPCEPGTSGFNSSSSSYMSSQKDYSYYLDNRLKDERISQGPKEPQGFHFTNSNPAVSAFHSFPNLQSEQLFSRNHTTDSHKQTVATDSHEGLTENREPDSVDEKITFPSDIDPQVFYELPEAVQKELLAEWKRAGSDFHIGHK
# Out of some 390,000 compounds screened, about 4,000 (1%) were called active. Inconclusive results, whose numbers are uncertain, are shown with a selection of clear calls. The call rests on the fitted dose curve; in most records, active means well fitted inhibition curve with a large enough effect; inconclusive means small, poorly fitted or top-dose-only effect, or another doubt; inactive means no such curve, though single readings can be large or run the other way. Potencies of inconclusive entries are doubtful fits and often do not repeat.
# Target: DNA polymerase iota (Homo sapiens) (UniProt Q9UNA4)
# Experiment: qHTS for Inhibitors of Polymerase Iota
# Conditions: Pol iota fluorescent replication assay, 10 min; series mostly up to 115 µM
# Procedure, shortened: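 Fluorescent replication assay read twice, at 0 min and 10 min after adding 50 nM (final) substrate. Enzyme (10 nM) and compounds were first incubated 15 min at room temperature; enzyme-free buffer wells were negative controls.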
# Potency means the concentration at half of the fitted maximal effect.
row,SMILES,Potency
1,CC(SCc1cc(=O)n2c([nH]c3ccccc32)c1C#N)C(=O)O (stereo not given),"inconclusive: 14.1 µM [inhibitor, partial curve, poor fit]"
2,CCOc1ccccc1CNC(=O)c1ccc2c(c1)nc1n2CCCCC1,inactive
3,Cc1ccc(Cl)cc1-n1ncc2c(NCCCc3ccccc3)ncnc21,"inconclusive: 79.4 µM [inhibitor, partial curve, poor fit]"
4,Cc1ccc(C2(c3ccc(C)cc3)CC2C(=O)Nc2ccc([N+](=O)[O-])cc2O)cc1 (stereo not given),"inconclusive: 39.8 µM [inhibitor, partial curve]"
5,CC(=O)NN1C(=O)/C(=C2/Sc3ccccc3N2C)SC1=S,"inconclusive: 15.8 µM [inhibitor, partial curve, poor fit]"
6,Cc1ccc2nc(Cl)c3nnnn3c2c1,"inconclusive: 10 µM [inhibitor, partial curve, poor fit]"
7,COC(=O)c1c(SC)nc2ccccc2c1OCc1ccc(Cl)cc1,inactive
8,O=C(c1cc2ccccc2cc1OCC(O)CN1CCCCC1)N1CCCCC1 (stereo not given),"inconclusive: 3.16 µM [inhibitor, full curve, poor fit]"
9,Oc1ccccc1/C=N/Nc1cc(N2CCCC2)nc(N2CCCC2)n1,"inconclusive: 3.55 µM [inhibitor, full curve, poor fit]"
10,COC(=O)CSc1nnc(CCc2nc3ccccc3[nH]2)n1C,"inconclusive: 89.1 µM [inhibitor, single point]"
11,Cc1[nH]n(-c2ccccc2)c(=O)c1N=Nc1c(Cl)cccc1Cl,"inconclusive: 31.6 µM [inhibitor, partial curve, poor fit]"
12,CS(=O)(=O)Nc1ccc(C(=O)N2CCCC2)cc1,"inconclusive: 100 µM [inhibitor, partial curve, poor fit]"
13,CCOC(=O)c1c(C(=O)OCC)c(C)n(N2C(=O)CSC2=S)c1C,"inconclusive: 14.1 µM [inhibitor, partial curve, poor fit]"
14,Cc1nn(-c2ccccc2)c2c1C(c1cccs1)C(C#N)=C(N)O2 (stereo not given),"inconclusive: 11.2 µM [inhibitor, partial curve, poor fit]"
15,CC(C)C[C@@H](CN)NC(=O)c1nc[nH]c1C(=O)N[C@@H](C)C(=O)CNC[C@H](C)NC(=O)c1nc[nH]c1C(=O)N[C@@H](CC(=O)O)C(=O)O,"inconclusive: 35.5 µM [inhibitor, single point]"
16,Fc1ccc(Nc2nc(-c3ccncc3)nc3ccccc23)cc1F,"inconclusive: 28.2 µM [inhibitor, partial curve, poor fit]"
17,CCC(=O)Nc1cccc(C2=NOC3(C2)C[C@H](C(N)=O)N(C(=O)c2ccc(Cl)cc2)C3)c1 (stereo not given in full),"inconclusive: 0.708 µM [inhibitor, full curve, poor fit]"
18,CCN1CCN(C(=O)C2CCCN(S(=O)(=O)c3cccc4nsnc34)C2)CC1 (stereo not given),"inconclusive: 89.1 µM [inhibitor, single point]"
19,COc1ccc(NC(=O)c2cc(S(=O)(=O)N3CCOCC3)ccc2C)cc1S(=O)(=O)N1CCCCC1,"inconclusive: 63.1 µM [inhibitor, single point]"
20,O=C(N/N=C/c1cccn1-c1ccc([N+](=O)[O-])cc1)C(O)c1ccccc1 (stereo not given),"inconclusive: 70.8 µM [inhibitor, partial curve, poor fit]"

# Single entries from the results shown:
# For Potency, CC(SCc1cc(=O)n2c([nH]c3ccccc32)c1C#N)C(=O)O (stereo not given) has inconclusive: 14.1 µM [inhibitor, partial curve, poor fit]
# For Potency, COc1ccc(NC(=O)c2cc(S(=O)(=O)N3CCOCC3)ccc2C)cc1S(=O)(=O)N1CCCCC1 has inconclusive: 63.1 µM [inhibitor, single point]
# For Potency, COC(=O)c1c(SC)nc2ccccc2c1OCc1ccc(Cl)cc1 has inactive
# For Potency, Cc1ccc(C2(c3ccc(C)cc3)CC2C(=O)Nc2ccc([N+](=O)[O-])cc2O)cc1 (stereo not given) has inconclusive: 39.8 µM [inhibitor, partial curve]

# More results follow.

row,SMILES,Potency
1,Cc1cccc(NC(=O)c2ccc3snnc3c2)c1C,inactive
2,O=c1c2cc3c(cc2n(Cc2ccc(F)cc2)c(=O)n1Cc1nc(-c2ccccc2)no1)OCO3,inactive
3,CC(=O)c1sc(NC(=O)CN2C(=O)C3CCCCC3C2=O)nc1-c1ccccc1 (stereo not given),"inconclusive: 6.31 µM [inhibitor, single point]"
4,C[C@]12c3[nH]c4ccc(Cl)cc4c3CCN1C(=O)[C@@H](CC(=O)NCC13CC4CC(CC(C4)C1)C3)C[C@@H]2C(=O)N1CCOCC1,"inconclusive: 44.7 µM [inhibitor, partial curve, poor fit]"
5,CCOc1ccc2nc(Cl)c(C3CC(c4ccc(OC)cc4)=NN3S(C)(=O)=O)cc2c1 (stereo not given),"inconclusive: 89.1 µM [inhibitor, partial curve, poor fit]"
6,COc1ccc(/C=N/NC(=O)c2ccc(NC(C)=O)cc2)cc1COc1ccc(F)cc1F,active: 35.5 µM
7,O=C(CCS(=O)(=O)c1ccccc1)NCCS(=O)(=O)c1ccccc1,"inconclusive: 17.8 µM [inhibitor, partial curve, poor fit]"
8,O=C(COC(=O)C1CCN(S(=O)(=O)c2cc([N+](=O)[O-])ccc2Cl)CC1)Nc1ncc(Cl)cc1Cl,"inconclusive: 12.6 µM [inhibitor, full curve, poor fit]"
9,CCOc1cc(/C=C/C(=O)c2ccc(OC)c(CN3CCOCC3)c2)cc(Br)c1O,"inconclusive: 17.8 µM [inhibitor, full curve]"
10,CCc1cc(C(c2cccc(OC)c2)N2CCOCC2)c(NC(=O)c2ccccc2)s1 (stereo not given),"inconclusive: 0.891 µM [inhibitor, partial curve, poor fit]"
11,O=C(O)c1cc(NC(=O)c2ccco2)cc(NC(=O)c2ccco2)c1,"inconclusive: 79.4 µM [inhibitor, partial curve]"
12,Cc1ccc(SCCOCCN2CCOCC2)cc1,"inconclusive: 31.6 µM [inhibitor, partial curve, poor fit]"
13,CCN(CC)C(=O)[C@H]1C[C@H](CC(=O)NCCCOC)C(=O)N2CCc3c([nH]c4cc(CCC(=O)N(C)C)ccc34)[C@]12C,inactive
14,CC(C)NS(=O)(=O)c1ccc(NC(=O)C(C)OC(=O)CCC2CCCC2)cc1 (stereo not given),"inconclusive: 70.8 µM [inhibitor, single point]"
15,CC(NC(=O)c1cncc(Br)c1)c1ccc(S(N)(=O)=O)cc1 (stereo not given),"inconclusive: 11.2 µM [inhibitor, single point]"
16,COc1ccc(S(=O)(=O)Nc2ccccc2C(=O)NCc2ccco2)cc1Br,"inconclusive: 31.6 µM [inhibitor, partial curve, poor fit]"
17,O=C(CSc1nnc(-c2ccc(Br)o2)n1Cc1ccccc1)c1ccccc1F,"inconclusive: 28.2 µM [inhibitor, partial curve]"
18,COc1ccc(CC(=O)Nc2cccc(C(=O)O)c2C)cc1,"inconclusive: 79.4 µM [inhibitor, single point]"
19,CC1CC(C)CN(C(=O)COC(=O)/C=C/c2ccco2)C1 (stereo not given),"inconclusive: 63.1 µM [inhibitor, partial curve, poor fit]"
20,COc1ccccc1CCNC(=O)C1CCN(c2nnc(-n3cccc3CNc3ccc(C)cc3)s2)CC1,"inconclusive: 3.16 µM [inhibitor, full curve, poor fit]"

row,SMILES,Potency
1,Oc1ccc2ccc(Cl)cc2c1,inactive
2,COc1ccc2c(c1)[C@H]1[C@H](CO2)[C@H](c2ccccc2)[C@]2(C)C(=O)N[C@H](C)C(=O)N12,"inconclusive: 8.91 µM [inhibitor, partial curve, poor fit]"
3,CCOc1ccc(Nc2ncnc3c2nc2n3CCCC2)cc1,"inconclusive: 89.1 µM [inhibitor, single point]"
4,CCc1ccccc1Nc1nn2c(=O)c3ccc(C(=O)NCc4ccccc4OC)cc3nc2s1,"inconclusive: 79.4 µM [inhibitor, partial curve]"
5,CCCSc1nnc(N2C(=O)C(O)=C(C(=O)c3ccco3)C2c2ccccc2F)s1 (stereo not given),"inconclusive: 11.2 µM [inhibitor, full curve, poor fit]"
6,COC(=O)c1ccc(C(=O)OC)c(NC(=O)CSCc2ccccc2Br)c1,"inconclusive: 112 µM [inhibitor, single point]"
7,O=C(O)c1ccc2nc(-c3cc4cccc(O)c4oc3=O)[nH]c2c1,"inconclusive: 15.8 µM [inhibitor, full curve, poor fit]"
8,COC(=O)C1=C(COc2ccccc2)NC(=O)NC1c1ccc2ccccc2c1 (stereo not given),"inconclusive: 56.2 µM [inhibitor, partial curve, poor fit]"
9,CCC(=O)N1CCc2cc(Br)cc(S(=O)(=O)N3CCN(c4ccc(C)cc4)C(C)C3)c21 (stereo not given),"inconclusive: 89.1 µM [inhibitor, single point]"
10,COc1ccc(O)c(C(c2c(C)[nH][nH]c2=O)c2c(C)[nH][nH]c2=O)c1,inactive
11,COc1cc(NC(=O)CSc2nnnn2Cc2ccccc2)cc(OC)c1,"inconclusive: 100 µM [inhibitor, partial curve, poor fit]"
12,Cc1ccc2ccccc2[n+]1[O-],inactive
13,Cn1c2c(c(=O)n(C)c1=O)C(NC(=O)C(C)(C)C)(C(F)(F)F)C(=O)N2 (stereo not given),"inconclusive: 31.6 µM [inhibitor, single point]"
14,CC(=O)NS(=O)(=O)c1ccc(NC(=O)CC23CC4CC(CC(Br)(C4)C2)C3)cc1,inactive
15,COc1ccc(C(=O)COC(=O)C(C(C)C)N2C(=O)C3C4C=CC(C4)C3C2=O)cc1 (stereo not given),"inconclusive: 25.1 µM [inhibitor, single point]"
16,O=C(Nc1ccc(F)cc1)Nc1nnc(-c2ccncc2)s1,"inconclusive: 31.6 µM [inhibitor, single point]"
17,Cc1ccnc(N2C(=O)c3ccccc3C2Nc2cccc(C)c2C)c1 (stereo not given),inactive
18,CC(NCc1ccc(S(N)(=O)=O)cc1)C(=O)N1CCc2ccccc21 (stereo not given),inactive
19,C=CCNC(=S)N/N=C/c1ccc(-c2ccc(Cl)cc2Cl)o1,"inconclusive: 89.1 µM [inhibitor, single point]"
20,O=C(NC1CCCCC1)NC1CCN(CC(=O)N2CCOCC2)CC1,"inconclusive: 14.1 µM [inhibitor, partial curve]"
